# Some of the results follow. The main result of the screen is listed elsewhere. These columns were measured beside it and carry no call. Most of these compounds were active or inconclusive in the main read-out, so they are no random draw. Words in brackets tell the shape of the fitted curve; partial curves, single points and poor fits give uncertain potencies.
# Test: IkB Signaling
# Details: ABC-DLBCL IkBa-CBG/CBR dual luciferase ratio (green luciferase fused to IkBa over red control in OCI-Ly3 lymphoma cells), 4 h
# In short: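 In this assay, an IκBα–CBG68 fusion accumulates when IKK-driven degradation is blocked; native CBR normalizes for cell number. OCI-Ly3 cells were treated 4 h with compound and doxycycline, then green and red light read after Chroma-Glo addition.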
# [1] = measured here: control luc red channel unless noted
smiles,measurement,setting,value
CCn1c2ccccc2c2nnc(N3CCN(c4cccc(Cl)c4)CC3)nc21,AC50,[1],"12.6 µM [falling, partial curve]"
O=c1cnc2cnc(Nc3ccccc3)nc2n1Cc1cccs1,AC50,measured here: IkB-luc green channel,"3.16 µM [falling, partial curve]"
same,AC50,measured here: control luc red channel,"3.98 µM [falling, partial curve]"
CCc1ccc(NC(=O)CCc2c(C)nc3nc(-c4cc(OC)cc(OC)c4)nn3c2C)cc1,AC50,[1],"7.94 µM [falling, partial curve]"
Cc1ccc(N2CCn3c2nc2c3c(=O)n(C/C=C/c3ccccc3)c(=O)n2C)cc1C,AC50,[1],"12.6 µM [falling, partial curve]"
COc1ccc(-c2noc(CCCC(=O)Nc3cccc(Cl)c3C)n2)cc1,AC50,[1],"0.794 µM [falling, partial curve]"
Cc1ccc(CN2CCSc3ccc(C(=O)NCc4ccc(OC(C)C)cc4)cc32)cc1,AC50,[1],"0.00631 µM [falling, full curve, poor fit]"
O=C(Cn1c(=O)n(-c2ccc(F)cc2)c(=O)c2sc3ccccc3c21)NC1CCCC1,AC50,[1],"15.8 µM [falling, partial curve]"
COc1ccc(-n2nc3ccc(NC(=O)c4c(OC)cccc4OC)cc3n2)cc1,AC50,[1],"12.6 µM [rising, partial curve]"
Cc1cc(C)cc(NC(=O)C2CCCN(S(=O)(=O)c3cccc4nsnc34)C2)c1 (stereo not drawn),AC50,[1],"0.794 µM [falling, partial curve]"
C[C@]12C=CC(=O)C=C1CC[C@@H]1[C@H]3C[C@@H](O)[C@](O)(C(=O)CO)[C@@]3(C)C[C@H](O)[C@]12F,AC50,[1],"20 nM [rising, full curve] [measured here: IkB-luc green channel]"
CCOC(=O)c1c(C)[nH]c(C)c1S(=O)(=O)NCC(=O)Nc1ccc(C)cc1C,AC50,[1],"6.31 µM [falling, single point]"
COc1ccc(Cl)cc1N1C(=O)C2CCCN2C1c1sccc1C (stereo not drawn),AC50,[1],"31.6 µM [falling, partial curve]"
COc1ccc(N(CC(=O)NC2CCCC2)C(=O)c2ccc(N3CCCCC3)nc2)cc1,AC50,[1],"20 µM [falling, partial curve]"
COc1ccc(NC(=O)CSc2nc(-c3cccs3)cc(C(F)(F)F)n2)cc1Cl,AC50,[1],"12.6 µM [falling, partial curve]"
CCc1ccc(C(=O)CC2(O)C(=O)N(CCc3ccccc3)c3ccc(Br)cc32)cc1 (stereo not drawn),AC50,[1],"25.1 µM [falling, partial curve]"
CCc1c(C)sc2c1CCN(Cc1cccc(OC)c1)C2c1ccccc1 (stereo not drawn),AC50,[1],"39.8 µM [falling, single point]"
CCC1=Nc2cc(C(=O)NCCc3ccc(OC)c(OC)c3)ccc2Sc2ccccc21,AC50,[1],"39.8 µM [falling, single point]"
CCCCN(CCCC)CCNC(=O)Cn1nc(CC)n2c(cc3sccc32)c1=O,AC50,[1],"25.1 µM [falling, single point]"
CCc1ccccc1S(=O)(=O)Cc1ccc(C(=O)NCc2ccc(Cl)cc2)o1,AC50,[1],"15.8 µM [falling, partial curve]"
Cc1ccc(CSC2=Nc3ccccc3C3=NC(CCC(=O)NC4CCCCC4)C(=O)N23)cc1 (stereo not drawn),AC50,[1],"1.58 µM [rising, full curve, poor fit]"
Cc1onc(-c2ccccc2Cl)c1C(=O)Nc1cccc(-c2cn3cccnc3n2)c1,AC50,[1],"12.6 µM [falling, partial curve]"
CCn1cnc2c(=O)oc3ccc(S(=O)(=O)N4CCN(c5cc(C)ccc5C)CC4)cc3c21,AC50,[1],"3.98 µM [falling, partial curve]"
O=S(=O)(NCCc1ccc(Cl)cc1)c1ccc(N2CCCCS2(=O)=O)cc1,AC50,[1],"25.1 µM [falling, partial curve]"
COc1ccc(C2=C(C)C(=O)N(Cc3ccc(C(=O)NCc4ccccc4C)cc3)S2(=O)=O)cc1,AC50,[1],"39.8 µM [falling, single point]"
CCc1nc2ccccc2c(=O)n1NC(=O)c1c(O)c2cccc3c2n(c1=O)CCC3,AC50,[1],"12.6 µM [falling, partial curve]"
CCOc1ccc(NC(=O)CCn2c(-c3ccc(F)cc3)cc(C(C)=O)c2C)cc1,AC50,[1],"0.398 µM [falling, partial curve]"
CCN(C(=O)CCS(=O)(=O)c1ccc(Br)cc1)c1ccc2c(c1)OCO2,AC50,[1],"25.1 µM [falling, single point]"
CCCOc1ccc(C(=O)Nc2cc3nn(-c4ccc(CC)cc4)nc3cc2C)cc1,AC50,[1],"2.51 µM [rising, full curve]"
O=C(CSc1nnc(-c2ccccc2)c(-c2ccccc2)n1)Nc1ccccc1Cl,AC50,[1],"12.6 µM [falling, partial curve]"
COc1ccccc1OCCCn1c(-c2ccc(Cl)cc2)nc2ccccc2c1=O,AC50,[1],"31.6 µM [falling, single point]"
Cc1ccc(-c2noc(CCC(=O)NCCCN3CCN(c4cccc(Cl)c4)CC3)n2)cc1,AC50,[1],"3.98 µM [falling, partial curve]"
CCC(C)Cn1c(COc2ccc(OC)cc2)nc2ccccc21 (stereo not drawn),AC50,[1],"39.8 µM [falling, single point]"
Cc1cc(C)c2cc(CN(CC3CCCO3)C(=O)NC3CCCCC3)c(=O)[nH]c2c1 (stereo not drawn),AC50,[1],"31.6 µM [falling, partial curve]"
CCOC(=O)c1ccc(NC(=O)Nc2cccc(OCc3cc(=O)n4ccc(C)cc4n3)c2)cc1,AC50,[1],"39.8 µM [rising, single point]"
COc1ccc(NC(=O)CCc2nc3cccnc3n2Cc2cccs2)c(OC)c1,AC50,[1],"3.16 µM [falling, partial curve, poor fit]"
Cc1nnc(SCC(=O)Nc2ccc(Cl)cn2)n1Cc1ccccc1,AC50,[1],"12.6 µM [falling, partial curve]"
Cc1ccc(CN2C(=O)SC(Nc3ccccc3)C2=O)cc1 (stereo not drawn),AC50,[1],"15.8 µM [falling, partial curve]"
O=C1NC(=S)SC1=C1CCCCCC1,AC50,[1],"1.58 µM [falling, full curve]"
CC(C)CCSc1nc2c(c(=O)n(C)c(=O)n2C)n1Cc1ccccc1Cl,AC50,[1],"3.16 µM [falling, full curve]"
O=C(C1CCN(S(=O)(=O)c2cccc3nonc23)CC1)N1CCN(c2ccc(F)cc2)CC1,AC50,[1],"20 µM [falling, partial curve]"
Nc1nc(-c2cccs2)c(NC(=O)c2ccccc2)s1,AC50,[1],"12.6 µM [falling, partial curve]"
CCOC(=O)c1c(C)oc2ncnc(Nc3ccc(CC)cc3)c12,AC50,[1],"0.0126 µM [rising, full curve, poor fit]"
COc1ccc(/C=C/c2nc(-c3ccccc3O)n(-c3ccccc3)n2)cc1OC,AC50,[1],"10 µM [falling, single point]"
COc1cc(N)c(Cl)cc1C(=O)N[C@H]1CCN(CCCOc2ccc(F)cc2)C[C@@H]1OC,AC50,[1],"39.8 µM [falling, partial curve]"
CC(=O)c1ccc(NC(=O)C(Cc2ccccc2)NS(=O)(=O)c2ccc3c(c2)CCC(=O)N3)cc1 (stereo not drawn),AC50,[1],"12.6 µM [falling, partial curve]"
CCOC(=O)Cc1c(C)nc2c(-c3ccc(OC)c(OC)c3)c(C)nn2c1C,AC50,[1],"0.316 µM [rising, partial curve, poor fit]"
Cc1cccc(C(=O)Nc2nnc(S(=O)(=O)N3CCC(C)CC3)s2)c1,AC50,[1],"3.16 µM [falling, partial curve]"
CN1CCN(C(=O)c2cc(-c3cccc(Cl)c3)on2)CC1,AC50,[1],"12.6 µM [falling, partial curve]"
Cc1cccc(C)c1OCC(=O)Nc1cccc(NC(=O)c2ccco2)c1,AC50,[1],"10 µM [falling, partial curve]"
CC(=O)c1cccc(NC(=O)Cn2c(-c3cncs3)nc3ccccc32)c1,AC50,[1],"3.16 µM [falling, partial curve]"
CCc1cccc(NC(=O)c2cc(S(=O)(=O)N3CCCCCC3)cn2C)c1,AC50,[1],"7.94 µM [falling, full curve]"
COc1ccccc1NC(=O)c1sc2nc(C)c(C(=O)Nc3ccc(Cl)cc3)c(-c3ccc(Br)cc3)c2c1N,AC50,[1],"6.31 µM [falling, partial curve]"
CC(C)(C)C(=O)NC1CC(=O)N(c2ccc3c(c2)OCCO3)C1 (stereo not drawn),AC50,[1],"1.58 µM [rising, full curve, poor fit]"
Cc1ccccc1CN1CCC(CNC(=O)c2cc3ccc4cccnc4c3[nH]2)CC1,AC50,[1],"20 µM [falling, single point]"
CN(C)c1ccnc2sc(C(=O)NCc3ccccc3)c(N)c12,AC50,[1],"31.6 µM [falling, single point]"
CCc1ccc2oc(C(=O)Nc3nc(-c4ccc(F)cc4)ns3)c(C)c2c1,AC50,[1],"25.1 µM [falling, partial curve]"
CCOc1ccccc1CNC(=O)C1CCN(c2nnc(C)c3c(C)n(-c4ccc(C)cc4)nc23)CC1,AC50,[1],"10 µM [falling, partial curve]"
COC(=O)CCC/C=C1/SCC(NC(=O)c2ccccc2)C1O (stereo not drawn),AC50,[1],"3.98 µM [falling, partial curve]"
O=C(CC1(O)C(=O)N(CCc2ccccc2)c2ccc(Br)cc21)c1ccccc1 (stereo not drawn),AC50,[1],"15.8 µM [falling, partial curve]"
CNC(=O)c1ccc(-c2nc(CN3CCc4ccccc43)c(C)o2)cc1,AC50,[1],"0.126 µM [rising, full curve]"
COc1ccc(S(=O)(=O)N(Cc2nc(-c3ccccc3)no2)C2CCCCC2)cc1,AC50,[1],"12.6 µM [falling, partial curve]"
CCSC1=C(C#N)C2(CCCC2)C(C#N)=C(N)N1,AC50,[1],"25.1 µM [falling, single point]"

# Part of the list above in another layout:
smiles	measurement	setting	value
Cc1ccc(CN2CCSc3ccc(C(=O)NCc4ccc(OC(C)C)cc4)cc32)cc1	AC50	[1]	0.00631 µM [falling, full curve, poor fit]
Cc1cc(C)cc(NC(=O)C2CCCN(S(=O)(=O)c3cccc4nsnc34)C2)c1 (stereo not drawn)	AC50	[1]	0.794 µM [falling, partial curve]
CCc1ccc(C(=O)CC2(O)C(=O)N(CCc3ccccc3)c3ccc(Br)cc32)cc1 (stereo not drawn)	AC50	[1]	25.1 µM [falling, partial curve]
CCC1=Nc2cc(C(=O)NCCc3ccc(OC)c(OC)c3)ccc2Sc2ccccc21	AC50	[1]	39.8 µM [falling, single point]
CCCCN(CCCC)CCNC(=O)Cn1nc(CC)n2c(cc3sccc32)c1=O	AC50	[1]	25.1 µM [falling, single point]
CCn1cnc2c(=O)oc3ccc(S(=O)(=O)N4CCN(c5cc(C)ccc5C)CC4)cc3c21	AC50	[1]	3.98 µM [falling, partial curve]
CCOc1ccc(NC(=O)CCn2c(-c3ccc(F)cc3)cc(C(C)=O)c2C)cc1	AC50	[1]	0.398 µM [falling, partial curve]
Cc1cc(C)c2cc(CN(CC3CCCO3)C(=O)NC3CCCCC3)c(=O)[nH]c2c1 (stereo not drawn)	AC50	[1]	31.6 µM [falling, partial curve]
CN1CCN(C(=O)c2cc(-c3cccc(Cl)c3)on2)CC1	AC50	[1]	12.6 µM [falling, partial curve]
COc1ccccc1NC(=O)c1sc2nc(C)c(C(=O)Nc3ccc(Cl)cc3)c(-c3ccc(Br)cc3)c2c1N	AC50	[1]	6.31 µM [falling, partial curve]
CNC(=O)c1ccc(-c2nc(CN3CCc4ccccc43)c(C)o2)cc1	AC50	[1]	0.126 µM [rising, full curve]

# — PubChem BioAssay AID445 (National Center for Advancing Translational Sciences (NCATS), 2006)
